The source of these data is patent EP0367040A1, “Compounds for the treatment of urinary incontinence” (Kabi Pharmacia AB, priority 1988, dated 1990).

For the test, the system named is rabbit urinary bladder. The test is described as follows: Inhibition of electrically induced contractions of isolated urinary bladder strips. The test is classed as cell-based. The following applies: Oryctolagus cuniculus, read-out: El.stim. rabbit urinary bladder IC50.

`CCN(CC)CC#CCOC(=O)C(O)(c1ccccc1)C1CCCCC1` (stereo not shown) [Oxybutynin, 2-cyclohexyl-2-hydroxy-2-phenylacetic acid 4-(diethylamino)-2-butynyl ester, reference compound]: the concentration for half-maximal inhibition (IC50) came to 2.9 µM.

One may read the IC50 as the concentration that gives 50% inhibition.
